Here are results for 3 molecules from PMC4014428.

Numbering of substitutions follows the chain as printed. Numbers in names are those of the source. No constants are given. Whether binding was seen depends on the method and setting. In cells and extracts the contact can be indirect. Some binding calls cover weakened binding; strength is not graded here.

B1: Gcn2 YKD fragment (230–604), wild type (domain or fragment, UniProt P15442 230-604)
chain: MFKFKAVVNPKPIKLTSDIFSFSKQFLVKPYIPPESPLADFLMSSEMMENFYYLLSEIELDNSYFNTSNGKKEIANLEKELETVLKAKHDNVNRLFGYTVERMGRNNATFVWKIRLLTEYCNYYPLGDLIQSVGFVNLATARIWMIRLLEGLEAIHKLGIVHKCINLETVILVKDADFGSTIPKLVHSTYGYTVLNMLSRYPNKNGSSVELSPSTWIAPELLKFNNAKPQRLTDIWQLGVLFIQIISGSDIVMNFETPQEFLDSTSMDETLYDLLSKMLNNDPKKRLGTLELLPMKFLRTNIDSTINRFNLVSESVNSNSLELTPGDTITVRGNGGRTLSQSSIRRRSFNVGSRFSSINPATRSRYASDFEEIAV
modifications: [35S]-methionine-labeled
B2: Gcn2 YKD fragment (230–604) E379K/T518A/L527I (domain or fragment, UniProt P15442 230-604)
chain: B1 chain with E150K, T289A, L298I
modifications: [35S]-methionine-labeled
B3: Gcn2 YKD fragment (230–604) E379K (domain or fragment, UniProt P15442 230-604)
chain: B1 chain with E150K
modifications: [35S]-methionine-labeled

This assay concerns the target HA epitope-tagged LexA fusion to a Gcn2 KD segment (residues 720–999) (S. cerevisiae) (UniProt P15442). Description: co-IP; [35S]methionine-labelled in vitro translated YKD fragments incubated with 50 µg WCE of gcn2Δ yeast HQY132 expressing LexA-HA-KD(720–999); anti-HA agarose, 4°C 2 h, breaking buffer (50 mM Tris/HCl pH 7.5, 50 mM NaCl, 0.1% Triton, 1 mM DTT); SDS-PAGE and fluorography; pellet:input ratios normalised to WT YKD.
For B1, the binding entry is “binds”.

For B2, the binding entry is “binds”.

In the case of B3, the binding entry is “binds”.
